Record: PubChem BioAssay AID1671195 (Yale University, 2021)

- Assay: 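Regulators of LDL receptor activity judged by labelled LDL uptake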 (primary screen)
- System: human Huh7 hepatoma cells
- Reagent: siRNA pool against human genes, 18 nM
- Duration: about 2 to 2.5 days of knockdown, then 8 h LDL uptake
- Conditions: DiI-labelled LDL at 30 µg/ml for 8 h, in lipoprotein-deficient serum medium
- Measurement: 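Per-cell DiI-LDL intensity by automated imaging; well means scaled to the plate median and given as a robust z-score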
- Direction: robust z-score: higher = more LDL uptake after knockdown
- Rule for the call: 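a gene counts as active if at least two replicate z-scores exceed ±2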
In all, the deposit lists about 22,000 reagents; shown is a part drawn at random. About 1,510 of them (6.9%) count as active. 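Active includes knockdowns raising or lowering LDL uptake; positive z-scores mean more uptake, negative mean less.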

gene symbol	robust z-score, replicate 1	robust z-score, replicate 2	robust z-score, replicate 3	outcome
TBC1D3P5	0.0884	0.364	0.0265	inactive
STXBP3	-0.962	0.906	2.14	inactive
PAPSS2	-0.376	-0.76	-1.11	inactive
NOP10	-1.26	-0.702	0.248	inactive
OBP2A	2.55	2.13	2.72	active
MIEN1	-0.588	-0.522	-0.754	inactive
EI24	0.747	-0.277	-0.0369	inactive
N4BP1	0.201	0.798	-1.33	inactive
CA9	0.453	0.322	0.159	inactive
LIPI	-4.86	2.31	2.85	active
NCKAP1	0.301	-0.000707	0.114	inactive
SLC6A16	-0.082	-0.151	-0.0554	inactive
SELL	-0.961	-1.52	-1.23	inactive
SLC50A1	-0.297	0.397	-0.425	inactive
LOC344165 (retired record)	-1.18	-1.17	-1.25	inactive
CFAP157	0.512	0.517	0.69	inactive
LINC01106	1.63	1.09	1.84	inactive
MYO1F	-0.578	-0.642	-0.141	inactive
ANKEF1	2.71	2.48	1.83	active
SLC19A2	-0.104	0.0359	0.0648	inactive
LRRC24	-0.221	-0.374	-0.897	inactive
CHAF1B	0.615	-0.0913	0.138	inactive
OR1E2	0.15	0.667	-0.104	inactive
CDKL3	0.645	0.923	0.409	inactive
TEKT3	-2.07	-2.07	-1.42	active
PRDX1	-0.0236	-1.03	-0.111	inactive
ZNF514	-0.927	-1.31	-0.876	inactive
PRSS50	-1.85	-1.8	-1.69	inactive
ABLIM1	-0.0254	0.393	-0.456	inactive
H3C12	-0.112	0.158	0.0168	inactive
OR11H4	-0.591	-0.718	-0.945	inactive
NKX2-2	2.31	1.64	2.15	active
CXCL9	-0.0637	-0.0017	-0.378	inactive
PTTG1IP	-1.61	-0.666	-1.35	inactive
SPO11	-1.65	-1.88	-1.52	inactive
TTK	-0.585	-0.682	-0.791	inactive
HEYL	-1.81	1.19	-1.21	inactive
CDC123	-1.26	-0.843	-1.36	inactive
LCTL	1.1	-0.0816	-0.232	inactive
LGI4	0.829	0.949	0.644	inactive
SH2B1	-0.468	-1.87	-0.68	inactive
EPO	-0.482	0.116	0.5	inactive
PCSK9	2.51	3.96	3.57	active
ZBTB49	-0.112	-0.447	0.431	inactive
ATP6V0D2	0.208	0.631	0.554	inactive
NPHS1	-1.06	0.492	0.185	inactive

2 entries from above, reformatted:
{"gene symbol":"TBC1D3P5","robust z-score, replicate 1":0.0884,"robust z-score, replicate 2":0.364,"robust z-score, replicate 3":0.0265,"outcome":"inactive"}
{"gene symbol":"STXBP3","robust z-score, replicate 1":-0.962,"robust z-score, replicate 2":0.906,"robust z-score, replicate 3":2.14,"outcome":"inactive"}
